Values of other authors in US7858634B2, “Amorphous 3-pyridil-1-hydroxyethyliden-1,1-biphosphonic acid monosodium salt and process for the preparation thereof” (Chemi SpA, priority 2004, dated 2010).

Settings: amorphous form; as described in WO03/033508; cited from earlier work

In the case of `NCCCC(O)(P(=O)(O)O)P(=O)(O)O` [sodium alendronate], the “dissolution rate in water with respect to crystalline forms” value is given as “more rapidly dissolved in water”.
